The text below walks through data of article PMC9463131, “SLITRK1-mediated noradrenergic projection suppression in the neonatal prefrontal cortex” (Communications Biology, 2022).

These are yes or no findings as the source states them, for the method shown. Binding can be weak; no strength is given. Sequences can lack the tags named with a protein.

In this experiment the target is T1, SLITRK1 ECD-immunoglobulin Fc domain-fusion protein (SLITRK1-WT-Fc) (human) (UniProt Q96PX8).
T1 sequence: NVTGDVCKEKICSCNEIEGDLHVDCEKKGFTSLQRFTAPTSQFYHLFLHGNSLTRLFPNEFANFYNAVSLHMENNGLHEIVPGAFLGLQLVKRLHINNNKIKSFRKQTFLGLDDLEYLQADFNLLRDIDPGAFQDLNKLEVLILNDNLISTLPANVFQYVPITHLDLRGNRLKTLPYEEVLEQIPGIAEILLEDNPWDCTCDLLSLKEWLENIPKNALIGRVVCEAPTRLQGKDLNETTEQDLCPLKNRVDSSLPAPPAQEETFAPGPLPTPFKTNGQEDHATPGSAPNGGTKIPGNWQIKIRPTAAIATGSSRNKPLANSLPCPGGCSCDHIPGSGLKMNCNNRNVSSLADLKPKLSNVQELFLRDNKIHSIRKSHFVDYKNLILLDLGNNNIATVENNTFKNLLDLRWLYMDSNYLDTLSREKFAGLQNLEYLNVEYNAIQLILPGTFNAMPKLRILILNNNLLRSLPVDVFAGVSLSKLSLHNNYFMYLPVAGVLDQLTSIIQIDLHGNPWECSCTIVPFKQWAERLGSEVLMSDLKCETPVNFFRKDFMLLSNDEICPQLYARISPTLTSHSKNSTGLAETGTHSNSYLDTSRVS
Kind of experiment: pull-down; 10 pmol SLITRK1 ECD-Fc or IgFc captured on Protein A agarose; 7.5 pmol Neurofascin 155-His added, 1 h at 4 °C; 10 mM HEPES pH 7.4, 2 mM CaCl2, 1 mM MgCl2, 0.1% Triton X-100; blot with anti-His tag antibody; both purified.

As for “human Neurofascin ECD-His6 (8208-NF-050, R&D Systems) (domain or fragment)”, the binding result was “binds”.
